Taken from: PubChem BioAssay AID1259284 (Sanger Institute, 2017)

Screen: 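Kinase genes needed for growth or acting with cancer drugs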 (primary screen)
Cell system: SW48 human colorectal cancer cells
Reagents: siRNA pool against human genes
Conditions: anchor drug BYL719 at 1 µM, cetuximab at 5 µg/ml or trametinib at 10 nM, or DMSO vehicle alone
Measurement: 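Cell viability relative to non-targeting pool wells, replicate mean, with robust z-scores and drug synergy scores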
Reading the numbers: robust z-score, no drug: higher = more cells survive knock-down; viability, no drug: higher = more viable cells; synergy with BYL719 and synergy with trametinib and synergy with cetuximab: higher = stronger combined killing with drug
Rule for the call: 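Called essential when the robust z-score of viability without drug falls below -3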
Meaning of the calls: active = essential without drug; inactive = no change without drug
The deposit covers 794 reagents; shown is a part drawn at random. 16 of all reagents (2%) count as active. 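Calls concern knock-down without drug only; drug synergy was judged apart, with scores above 0.15 taken as synergy.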 No viability above 1 is reported: the scale is capped. Reagent sequences are not shown. Not given: the amount of reagent, the time to read-out.

gene | robust z-score, no drug | viability, no drug (fraction of control) | synergy with BYL719 | synergy with trametinib | synergy with cetuximab | outcome
CDK5R2 (cyclin dependent kinase 5 regulatory subunit 2) | 0.426 | 1 | -0.299 | -0.371 | -0.165 | inactive
BMP2K (BMP2 inducible kinase) | -0.218 | 0.945 | -0.0485 | 0.166 | 0.0326 | inactive
NRAS (NRAS proto-oncogene, GTPase) | 0.426 | 1 | -0.367 | -0.277 | -0.165 | inactive
MOS (MOS proto-oncogene, serine/threonine kinase) | -0.62 | 0.91 | -0.0234 | 0.0323 | 0.0371 | inactive
DGKK (diacylglycerol kinase kappa) | 0.426 | 1 | -0.327 | -0.208 | -0.165 | inactive
GCK (glucokinase) | -2.81 | 0.722 | -0.00754 | -0.00588 | -0.164 | inactive
EIF2AK2 (eukaryotic translation initiation factor 2 alpha kinase 2) | -0.478 | 0.922 | -0.102 | -0.189 | -0.0248 | inactive
ULK2 (unc-51 like autophagy activating kinase 2) | 0.426 | 1 | -0.211 | 0.0425 | -0.0101 | inactive
PCBP1 (poly(rC) binding protein 1) | -0.983 | 0.879 | -0.237 | -0.082 | -0.127 | inactive
EPHA1 (EPH receptor A1) | 0.426 | 1 | -0.307 | -0.0958 | -0.165 | inactive
STK35 (serine/threonine kinase 35) | 0.426 | 1 | -0.157 | -0.0181 | 0.0131 | inactive
N4BP2 (NEDD4 binding protein 2) | 0.426 | 1 | -0.305 | -0.234 | -0.0461 | inactive
YES1 (YES proto-oncogene 1, Src family tyrosine kinase) | -0.511 | 0.92 | -0.22 | -0.0792 | -0.114 | inactive
SF3B1 (splicing factor 3b subunit 1) | -2.46 | 0.752 | -0.19 | 0.0659 | -0.0302 | inactive
FGR (FGR proto-oncogene, Src family tyrosine kinase) | -0.345 | 0.934 | -0.0399 | -0.128 | -0.0545 | inactive
CDC42BPA (CDC42 binding protein kinase alpha) | -2.23 | 0.772 | -0.224 | -0.146 | -0.141 | inactive
PIK3CD | -0.542 | 0.917 | -0.164 | -0.0816 | -0.234 | inactive
NEK2 (NIMA related kinase 2) | -0.233 | 0.943 | -0.131 | -0.0801 | -0.212 | inactive
TSKS (testis specific serine kinase substrate) | 0.426 | 1 | -0.164 | -0.058 | -0.0355 | inactive
MYLK4 (myosin light chain kinase family member 4) | 0.426 | 1 | -0.0229 | -0.00322 | -0.11 | inactive
CDC7 (cell division cycle 7) | -0.334 | 0.935 | -0.0935 | -0.0654 | 0.0421 | inactive
STK4 (serine/threonine kinase 4) | 0.426 | 1 | -0.25 | -0.231 | -0.0325 | inactive
MYLK3 (myosin light chain kinase 3) | 0.235 | 0.984 | -0.289 | -0.0286 | -0.179 | inactive
CDC73 (cell division cycle 73) | 0.426 | 1 | -0.318 | -0.0986 | -0.165 | inactive
PRKCE (protein kinase C epsilon) | -0.506 | 0.92 | 0.062 | 0.0207 | -0.0294 | inactive
NR4A2 (nuclear receptor subfamily 4 group A member 2) | -0.224 | 0.944 | -0.0789 | 0.0352 | 0.198 | inactive
PGK1 (phosphoglycerate kinase 1) | 0.426 | 1 | -0.106 | 0.0243 | -0.0321 | inactive
PFKM (phosphofructokinase, muscle) | 0.426 | 1 | -0.327 | -0.208 | -0.155 | inactive
PAK3 (p21 (RAC1) activated kinase 3) | 0.426 | 1 | -0.122 | 0.00658 | 0.05 | inactive
DGUOK (deoxyguanosine kinase) | 0.426 | 1 | -0.279 | -0.191 | -0.165 | inactive
PKLR (pyruvate kinase L/R) | 0.426 | 1 | -0.285 | -0.0843 | -0.123 | inactive

Next part, starting with the last 4 of the part before.
gene | robust z-score, no drug | viability, no drug (fraction of control) | synergy with BYL719 | synergy with trametinib | synergy with cetuximab | outcome
PFKM (phosphofructokinase, muscle) | 0.426 | 1 | -0.327 | -0.208 | -0.155 | inactive
PAK3 (p21 (RAC1) activated kinase 3) | 0.426 | 1 | -0.122 | 0.00658 | 0.05 | inactive
DGUOK (deoxyguanosine kinase) | 0.426 | 1 | -0.279 | -0.191 | -0.165 | inactive
PKLR (pyruvate kinase L/R) | 0.426 | 1 | -0.285 | -0.0843 | -0.123 | inactive
DUSP21 (dual specificity phosphatase 21) | 0.426 | 1 | -0.165 | -0.0819 | -0.165 | inactive
ERN2 (endoplasmic reticulum to nucleus signaling 2) | 0.426 | 1 | -0.101 | -0.0943 | -0.0168 | inactive
NEK9 (NIMA related kinase 9) | 0.426 | 1 | -0.0724 | 0.00875 | -0.0246 | inactive
CDK17 (cyclin dependent kinase 17) | 0.426 | 1 | -0.0857 | -0.129 | -0.00346 | inactive
TRIM27 (tripartite motif containing 27) | 0.426 | 1 | -0.155 | -0.0294 | -0.0601 | inactive
POMK (protein O-mannose kinase) | 0.385 | 0.996 | -0.336 | -0.351 | -0.168 | inactive
SGK2 (serum/glucocorticoid regulated kinase 2) | 0.0561 | 0.968 | -0.113 | -0.0661 | 0.0687 | inactive
AK5 (adenylate kinase 5) | 0.343 | 0.993 | -0.0584 | -0.126 | -0.0141 | inactive
ERBB3 (erb-b2 receptor tyrosine kinase 3) | 0.426 | 1 | -0.254 | -0.152 | -0.0941 | inactive
MAPKAPK3 (MAPK activated protein kinase 3) | -1.86 | 0.804 | -0.0124 | -0.104 | -0.0544 | inactive
AAK1 (AP2 associated kinase 1) | 0.426 | 1 | -0.27 | -0.147 | -0.165 | inactive
NPR2 (natriuretic peptide receptor 2) | 0.426 | 1 | -0.18 | 0.000715 | -0.0783 | inactive
MAPK3 (mitogen-activated protein kinase 3) | 0.426 | 1 | -0.0485 | 0.175 | 0.0243 | inactive
GRK5 (G protein-coupled receptor kinase 5) | -0.363 | 0.932 | -0.0917 | -0.00523 | 0.101 | inactive
CDK20 (cyclin dependent kinase 20) | 0.426 | 1 | 0.0341 | 0.0267 | -0.101 | inactive
MAPKAPK5 (MAPK activated protein kinase 5) | 0.426 | 1 | -0.268 | -0.385 | -0.136 | inactive
MAP3K21 (mitogen-activated protein kinase kinase kinase 21) | 0.426 | 1 | -0.137 | -0.137 | -0.165 | inactive
GALK2 (galactokinase 2) | -0.754 | 0.899 | 0.022 | 0.108 | 0.139 | inactive
MAP3K7 (mitogen-activated protein kinase kinase kinase 7) | 0.426 | 1 | -0.156 | -0.175 | -0.0379 | inactive
